Measured values reported in the supplement of paper PMC12819154, “High-throughput peptide-centric local stability assay extends protein–ligand identification to membrane proteins, tissues and bacteria” (Nature Structural & Molecular Biology, 2025).
The other results are listed elsewhere or left out. Small differences around the control level are noise.

Protein sequences, listed by entry. Tags and fused reporters are not part of them. Lines headed by an entry give the natural chain unless they say otherwise; changes in a name come on top.
UniProt P46144: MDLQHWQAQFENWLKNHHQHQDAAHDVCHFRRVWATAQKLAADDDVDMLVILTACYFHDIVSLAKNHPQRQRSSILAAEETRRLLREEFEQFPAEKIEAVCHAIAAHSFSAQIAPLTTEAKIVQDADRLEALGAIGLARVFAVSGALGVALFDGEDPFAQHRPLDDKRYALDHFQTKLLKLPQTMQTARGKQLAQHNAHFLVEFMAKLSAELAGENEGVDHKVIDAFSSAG
UniProt P52129: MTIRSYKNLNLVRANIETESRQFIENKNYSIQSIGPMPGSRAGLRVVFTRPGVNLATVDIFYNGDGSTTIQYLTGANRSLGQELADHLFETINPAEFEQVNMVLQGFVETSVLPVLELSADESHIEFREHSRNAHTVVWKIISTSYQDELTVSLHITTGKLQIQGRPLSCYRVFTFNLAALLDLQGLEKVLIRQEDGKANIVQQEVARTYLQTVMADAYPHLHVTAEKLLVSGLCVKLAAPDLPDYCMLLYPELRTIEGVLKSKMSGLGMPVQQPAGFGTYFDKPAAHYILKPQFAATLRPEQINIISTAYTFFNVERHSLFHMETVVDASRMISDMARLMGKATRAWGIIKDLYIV
UniProt P55138: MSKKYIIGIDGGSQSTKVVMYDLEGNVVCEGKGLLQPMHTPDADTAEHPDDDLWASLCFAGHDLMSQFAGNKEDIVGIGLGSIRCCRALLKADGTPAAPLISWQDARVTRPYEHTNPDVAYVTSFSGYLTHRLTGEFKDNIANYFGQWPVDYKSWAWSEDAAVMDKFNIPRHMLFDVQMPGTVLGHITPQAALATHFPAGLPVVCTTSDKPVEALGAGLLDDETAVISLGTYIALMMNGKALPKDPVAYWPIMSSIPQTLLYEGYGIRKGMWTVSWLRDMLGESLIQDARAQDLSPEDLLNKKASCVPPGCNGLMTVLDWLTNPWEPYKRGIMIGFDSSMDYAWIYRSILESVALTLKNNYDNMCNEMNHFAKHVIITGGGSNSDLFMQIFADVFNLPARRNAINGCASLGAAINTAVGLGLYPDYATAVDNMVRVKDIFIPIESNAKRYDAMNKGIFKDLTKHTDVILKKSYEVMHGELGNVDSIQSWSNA
UniProt P75800: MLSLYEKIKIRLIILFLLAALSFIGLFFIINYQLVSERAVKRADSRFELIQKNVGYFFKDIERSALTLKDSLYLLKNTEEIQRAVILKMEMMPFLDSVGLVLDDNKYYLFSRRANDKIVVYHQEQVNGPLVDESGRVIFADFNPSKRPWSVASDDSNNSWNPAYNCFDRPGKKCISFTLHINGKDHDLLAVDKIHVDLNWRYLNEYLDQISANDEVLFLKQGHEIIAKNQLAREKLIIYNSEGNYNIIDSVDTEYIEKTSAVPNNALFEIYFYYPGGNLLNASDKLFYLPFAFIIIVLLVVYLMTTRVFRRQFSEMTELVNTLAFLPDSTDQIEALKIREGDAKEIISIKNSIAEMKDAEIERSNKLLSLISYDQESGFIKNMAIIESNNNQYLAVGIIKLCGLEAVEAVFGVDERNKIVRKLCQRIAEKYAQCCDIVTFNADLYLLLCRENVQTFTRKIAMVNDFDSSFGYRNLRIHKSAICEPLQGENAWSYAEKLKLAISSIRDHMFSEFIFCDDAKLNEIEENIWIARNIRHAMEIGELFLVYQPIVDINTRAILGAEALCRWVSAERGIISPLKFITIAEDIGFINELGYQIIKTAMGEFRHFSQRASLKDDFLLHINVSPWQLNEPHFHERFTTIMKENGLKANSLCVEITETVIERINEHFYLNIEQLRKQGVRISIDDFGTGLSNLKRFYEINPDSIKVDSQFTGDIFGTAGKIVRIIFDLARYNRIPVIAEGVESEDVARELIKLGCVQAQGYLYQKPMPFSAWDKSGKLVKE
UniProt P75672: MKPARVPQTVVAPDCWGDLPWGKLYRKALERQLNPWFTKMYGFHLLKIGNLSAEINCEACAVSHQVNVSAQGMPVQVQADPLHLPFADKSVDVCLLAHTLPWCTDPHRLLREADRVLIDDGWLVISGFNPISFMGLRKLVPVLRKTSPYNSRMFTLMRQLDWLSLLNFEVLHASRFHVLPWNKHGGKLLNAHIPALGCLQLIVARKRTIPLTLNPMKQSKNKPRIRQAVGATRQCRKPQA
UniProt P75823: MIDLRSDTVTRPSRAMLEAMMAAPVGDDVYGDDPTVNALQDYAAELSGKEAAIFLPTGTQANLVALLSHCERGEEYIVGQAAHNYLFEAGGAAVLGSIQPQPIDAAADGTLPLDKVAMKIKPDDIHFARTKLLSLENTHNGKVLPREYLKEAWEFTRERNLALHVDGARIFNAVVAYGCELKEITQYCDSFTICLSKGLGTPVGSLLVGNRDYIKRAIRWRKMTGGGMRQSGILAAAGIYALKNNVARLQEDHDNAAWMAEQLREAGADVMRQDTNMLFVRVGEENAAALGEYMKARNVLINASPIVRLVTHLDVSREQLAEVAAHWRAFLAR
UniProt P52627: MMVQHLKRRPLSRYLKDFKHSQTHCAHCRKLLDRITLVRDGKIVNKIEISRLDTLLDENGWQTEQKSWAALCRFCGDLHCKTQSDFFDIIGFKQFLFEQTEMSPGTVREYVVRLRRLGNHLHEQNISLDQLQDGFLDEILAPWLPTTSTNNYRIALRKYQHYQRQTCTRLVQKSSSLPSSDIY
UniProt P46122: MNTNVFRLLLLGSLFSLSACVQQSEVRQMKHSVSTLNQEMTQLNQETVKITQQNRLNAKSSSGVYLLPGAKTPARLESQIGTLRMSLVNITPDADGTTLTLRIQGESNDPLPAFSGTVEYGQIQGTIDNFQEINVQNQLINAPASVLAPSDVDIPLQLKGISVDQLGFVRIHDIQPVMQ
UniProt P56256: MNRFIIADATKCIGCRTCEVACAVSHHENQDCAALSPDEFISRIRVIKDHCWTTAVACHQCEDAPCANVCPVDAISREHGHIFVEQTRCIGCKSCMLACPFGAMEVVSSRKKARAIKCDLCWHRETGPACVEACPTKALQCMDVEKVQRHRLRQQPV
UniProt P75793: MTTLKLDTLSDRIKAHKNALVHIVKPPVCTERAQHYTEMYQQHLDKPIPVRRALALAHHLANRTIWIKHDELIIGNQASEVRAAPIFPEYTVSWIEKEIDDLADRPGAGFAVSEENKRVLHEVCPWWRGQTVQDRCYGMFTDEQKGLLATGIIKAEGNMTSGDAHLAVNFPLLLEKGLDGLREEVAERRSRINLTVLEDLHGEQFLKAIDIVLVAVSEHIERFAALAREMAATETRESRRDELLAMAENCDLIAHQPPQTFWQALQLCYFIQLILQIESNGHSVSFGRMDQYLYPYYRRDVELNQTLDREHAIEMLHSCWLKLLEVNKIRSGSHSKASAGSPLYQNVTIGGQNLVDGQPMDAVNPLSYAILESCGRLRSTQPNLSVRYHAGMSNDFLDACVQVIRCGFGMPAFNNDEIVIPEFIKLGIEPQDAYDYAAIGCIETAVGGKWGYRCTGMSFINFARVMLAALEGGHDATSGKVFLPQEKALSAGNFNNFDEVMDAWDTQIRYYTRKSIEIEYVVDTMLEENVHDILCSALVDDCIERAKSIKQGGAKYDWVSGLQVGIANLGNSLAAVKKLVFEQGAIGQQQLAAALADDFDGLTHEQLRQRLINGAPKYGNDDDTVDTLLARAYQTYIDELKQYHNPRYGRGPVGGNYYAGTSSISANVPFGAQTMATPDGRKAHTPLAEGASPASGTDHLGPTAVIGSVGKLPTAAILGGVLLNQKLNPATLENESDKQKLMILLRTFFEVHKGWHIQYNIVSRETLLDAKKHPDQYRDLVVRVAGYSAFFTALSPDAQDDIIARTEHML
UniProt P52132: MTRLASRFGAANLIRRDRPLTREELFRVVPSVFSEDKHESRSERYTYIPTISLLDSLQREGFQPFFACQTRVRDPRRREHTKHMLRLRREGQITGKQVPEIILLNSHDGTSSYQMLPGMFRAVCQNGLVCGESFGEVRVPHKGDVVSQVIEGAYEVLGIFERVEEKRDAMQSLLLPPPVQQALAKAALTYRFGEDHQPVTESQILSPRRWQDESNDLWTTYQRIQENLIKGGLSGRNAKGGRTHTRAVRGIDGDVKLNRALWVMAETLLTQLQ
UniProt P52044: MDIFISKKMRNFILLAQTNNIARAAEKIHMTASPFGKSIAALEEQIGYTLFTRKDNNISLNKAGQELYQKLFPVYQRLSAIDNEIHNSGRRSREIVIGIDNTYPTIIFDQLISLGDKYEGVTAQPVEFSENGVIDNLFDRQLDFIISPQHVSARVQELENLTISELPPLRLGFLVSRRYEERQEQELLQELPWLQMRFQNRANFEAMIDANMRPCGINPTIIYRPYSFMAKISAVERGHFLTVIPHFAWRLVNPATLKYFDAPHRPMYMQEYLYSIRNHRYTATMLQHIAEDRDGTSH
UniProt P61517: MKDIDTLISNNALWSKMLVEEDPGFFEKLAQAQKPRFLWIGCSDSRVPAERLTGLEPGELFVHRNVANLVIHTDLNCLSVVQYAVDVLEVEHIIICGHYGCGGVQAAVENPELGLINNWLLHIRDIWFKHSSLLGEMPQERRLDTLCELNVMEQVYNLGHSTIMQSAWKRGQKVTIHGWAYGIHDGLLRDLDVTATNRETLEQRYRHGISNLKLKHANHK
UniProt P75830: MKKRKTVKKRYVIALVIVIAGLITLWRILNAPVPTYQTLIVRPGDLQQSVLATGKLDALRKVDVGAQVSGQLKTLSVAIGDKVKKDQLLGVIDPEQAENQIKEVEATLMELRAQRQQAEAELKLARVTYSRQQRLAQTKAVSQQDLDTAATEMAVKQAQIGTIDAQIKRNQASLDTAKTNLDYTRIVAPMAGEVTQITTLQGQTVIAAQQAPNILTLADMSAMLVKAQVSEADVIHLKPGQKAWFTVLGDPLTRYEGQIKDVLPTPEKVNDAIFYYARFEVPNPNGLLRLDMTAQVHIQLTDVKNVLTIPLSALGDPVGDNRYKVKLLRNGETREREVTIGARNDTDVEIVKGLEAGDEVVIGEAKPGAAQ
UniProt P52123: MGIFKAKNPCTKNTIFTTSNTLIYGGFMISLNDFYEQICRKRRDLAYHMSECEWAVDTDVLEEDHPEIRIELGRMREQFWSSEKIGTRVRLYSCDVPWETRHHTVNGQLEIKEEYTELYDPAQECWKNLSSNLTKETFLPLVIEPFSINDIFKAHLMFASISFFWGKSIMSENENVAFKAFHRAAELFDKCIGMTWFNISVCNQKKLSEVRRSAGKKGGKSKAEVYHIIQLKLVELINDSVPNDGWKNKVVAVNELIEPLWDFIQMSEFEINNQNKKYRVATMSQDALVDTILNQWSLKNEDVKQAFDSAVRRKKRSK
UniProt P64624: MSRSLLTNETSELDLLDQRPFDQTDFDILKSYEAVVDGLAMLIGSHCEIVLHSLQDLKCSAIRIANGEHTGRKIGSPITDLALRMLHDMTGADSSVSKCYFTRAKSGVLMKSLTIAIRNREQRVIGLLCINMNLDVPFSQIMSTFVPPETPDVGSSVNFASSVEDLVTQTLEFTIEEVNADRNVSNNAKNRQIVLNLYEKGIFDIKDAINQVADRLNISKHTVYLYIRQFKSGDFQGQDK
UniProt P75736: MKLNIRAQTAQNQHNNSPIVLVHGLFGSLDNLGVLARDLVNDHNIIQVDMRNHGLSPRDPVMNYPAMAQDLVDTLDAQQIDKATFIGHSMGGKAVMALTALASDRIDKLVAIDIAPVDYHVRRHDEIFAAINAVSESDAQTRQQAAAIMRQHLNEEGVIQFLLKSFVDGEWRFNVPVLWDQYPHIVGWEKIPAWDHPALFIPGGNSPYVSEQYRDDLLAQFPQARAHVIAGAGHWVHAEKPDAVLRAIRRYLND
UniProt P75728: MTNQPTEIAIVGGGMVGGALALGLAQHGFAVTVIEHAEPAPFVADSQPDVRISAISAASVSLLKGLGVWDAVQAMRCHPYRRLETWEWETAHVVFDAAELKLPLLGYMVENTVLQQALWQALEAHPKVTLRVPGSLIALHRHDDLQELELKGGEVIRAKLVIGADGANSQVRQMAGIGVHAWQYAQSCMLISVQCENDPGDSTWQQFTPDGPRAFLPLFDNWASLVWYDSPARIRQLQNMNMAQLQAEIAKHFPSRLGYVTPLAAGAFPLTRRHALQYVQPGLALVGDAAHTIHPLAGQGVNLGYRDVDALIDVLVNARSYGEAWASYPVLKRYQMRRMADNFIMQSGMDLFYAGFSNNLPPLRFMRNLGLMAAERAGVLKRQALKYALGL
UniProt P75818: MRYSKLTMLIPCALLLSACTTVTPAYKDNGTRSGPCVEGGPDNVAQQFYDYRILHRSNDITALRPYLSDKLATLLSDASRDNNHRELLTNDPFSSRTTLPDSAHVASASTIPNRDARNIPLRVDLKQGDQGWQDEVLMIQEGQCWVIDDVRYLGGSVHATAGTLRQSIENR
UniProt P63201: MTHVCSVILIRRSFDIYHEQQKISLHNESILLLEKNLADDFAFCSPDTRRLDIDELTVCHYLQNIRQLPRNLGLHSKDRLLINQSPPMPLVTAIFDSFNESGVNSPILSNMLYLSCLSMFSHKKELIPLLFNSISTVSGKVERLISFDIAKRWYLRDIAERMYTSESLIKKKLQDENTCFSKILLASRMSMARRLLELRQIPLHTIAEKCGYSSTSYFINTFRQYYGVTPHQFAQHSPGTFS

compound: CC1(C)S[C@@H]2[C@H](NC(=O)[C@H](N)c3ccccc3)C(=O)N2[C@H]1C(=O)O [ampicillin]; assay: log2 fold change of tryptic peptide abundance, ligand vs vehicle (limited proteolysis) (log2 ratio); higher = more trypsin-susceptible (destabilized); settings: ligand concentration: 10 uM; sample: E. coli crude lysate

Row | Target | log2 fold change
1 | UniProt P75822 (peptide sequence: HDLLADDTALR, peptide start residue: 267) | -0.23
2 | UniProt P46144 (peptide sequence: LLREEFEQFPAEK, peptide start residue: 84) | -0.53
3 | UniProt P52129 (peptide sequence: QEDGKANIVQQEVAR, peptide start residue: 194) | -0.176
4 | UniProt P55138 (peptide sequence: YIIGIDGGSQSTK, peptide start residue: 5) | 0.346
5 | UniProt P75800 (peptide sequence: AILGAEALCR, peptide start residue: 557) | 0.441
6 | UniProt P75672 (peptide sequence: KTSPYNSRMFTLMR, peptide start residue: 145) | -0.000847
7 | UniProt P75823 (peptide sequence: EQLAEVAAHWR, peptide start residue: 318) | 0.274
8 | UniProt P52627 (peptide sequence: HSQTHCAHCR, peptide start residue: 20) | 0.407
9 | UniProt P46122 (peptide sequence: IHDIQPVMQ, peptide start residue: 171) | -0.101
10 | UniProt P56256 (peptide sequence: CDLCWHR, peptide start residue: 118) | 0.156
11 | UniProt P75793 (peptide sequence: VFLPQEK, peptide start residue: 481) | 0.0631
12 | UniProt P52132 (peptide sequence: FGAANLIR, peptide start residue: 8) | 0.0553
13 | UniProt P52044 (peptide sequence: NHRYTATMLQHIAEDR, peptide start residue: 278) | -0.13
14 | UniProt P61517 (peptide sequence: FLWIGCSDSR, peptide start residue: 37) | -0.364
15 | UniProt P75830 (peptide sequence: NDTDVEIVK, peptide start residue: 344) | 0.223
16 | UniProt P52123 (peptide sequence: SKAEVYHIIQLK, peptide start residue: 221) | -0.507
17 | UniProt P64624 (peptide sequence: MLHDMTGADSSVSKCYFTR, peptide start residue: 85) | -0.328
18 | UniProt P75736 (peptide sequence: DLVNDHNIIQVDMR, peptide start residue: 38) | 0.311
19 | UniProt P52645 (peptide sequence: LSVLTQGQAGK, peptide start residue: 299) | -0.114
20 | UniProt P75728 (peptide sequence: LVIGADGANSQVR, peptide start residue: 160) | 0.224
21 | UniProt P75818 (peptide sequence: NIPLRVDLK, peptide start residue: 118) | -0.12
22 | UniProt P63201 (peptide sequence: MYTSESLIK, peptide start residue: 162) | -0.12

An excerpt of these results, as tab-separated lines:
Row	Target	log2 fold change
16	UniProt P52123 (peptide sequence: SKAEVYHIIQLK, peptide start residue: 221)	-0.507
17	UniProt P64624 (peptide sequence: MLHDMTGADSSVSKCYFTR, peptide start residue: 85)	-0.328
